# According to article PMC6370856, “Peptidyl prolyl cis/trans isomerase activity on the cell surface correlates with extracellular matrix development” (Communications Biology, 2019):
# The source gives many values for each of these; only a part stands here.
# Tested on: fibrin hydrogel
# Assay: Stiffness (storage modulus) of fibrin gel by rheometer
# Experimental: To minimize sample evaporation at 37 °C, a tissue paper wet in HEPEs buffer (10 mM, pH 7.8) was placed inside the H-PTD chamber to increase the humidity. […] The cone and plate were treated with plasma for 5 min to increase the hydrophilicity of the metal surface.
# Fibrin gel: Fibrinogen (Shanghai Laishi Xuezhipin Limited Company) was dissolved in PBS with a concentration of 22.2 mg mL^−1 overnight at room temperature with gentle shaking and aliquoted in protein low-binding tubes (45 µL per tube). […] Fifty microliters of thrombin (4 EU mL^−1 in PBS with 1.8 mM CaCl2) was added and pipetted up and down ten times. Then, it was transferred to the rheometer plate for measurement. […] For each condition, two independent experiments were performed (Fig. 1a and Supplementary Fig. 1).
substance,measurement,setting,value
"CypA: recombinant cyclophilin A, a PPIase, expressed in E. coli",Storage Modulus Mean,"1 micromolar CypA, 0.5 min",45.818 Pa
same,Storage Modulus Mean,"1 micromolar CypA, 1 min",48.4905 Pa
same,Storage Modulus Mean,"1 micromolar CypA, 2 min",52.9685 Pa
same,Storage Modulus Mean,"1 micromolar CypA, 2.5 min",54.993 Pa
same,Storage Modulus Mean,"1 micromolar CypA, 15.5 min",79.1775 Pa
same,Storage Modulus Mean,"1 micromolar CypA, 16 min",79.6365 Pa
same,Storage Modulus Mean,"1 micromolar CypA, 16.5 min",80.152 Pa
same,Storage Modulus Mean,"1 micromolar CypA, 17 min",80.5265 Pa
same,Storage Modulus Mean,"1 micromolar CypA, 17.5 min",80.761 Pa
same,Storage Modulus Mean,"1 micromolar CypA, 18 min",81.103 Pa
same,Storage Modulus Mean,"1 micromolar CypA, 18.5 min",81.3165 Pa
same,Storage Modulus Mean,"1 micromolar CypA, 19 min",82 Pa
same,Storage Modulus Mean,"1 micromolar CypA, 19.5 min",82.816 Pa
same,Storage Modulus Mean,"1 micromolar CypA, 20 min",82.7485 Pa
same,Storage Modulus Mean,"1 micromolar CypA, 20.5 min",83.9135 Pa
same,Storage Modulus Mean,"1 micromolar CypA, 21 min",83.831 Pa
same,Storage Modulus Mean,"1 micromolar CypA, 22 min",84.392 Pa
same,Storage Modulus Mean,"1 micromolar CypA, 22.5 min",84.6935 Pa
same,Storage Modulus Mean,"1 micromolar CypA, 23 min",84.7675 Pa
same,Storage Modulus Mean,"1 micromolar CypA, 23.5 min",85.516 Pa
same,Storage Modulus Mean,"1 micromolar CypA, 24 min",85.767 Pa
same,Storage Modulus Mean,"1 micromolar CypA, 24.5 min",85.62 Pa
same,Storage Modulus Mean,"1 micromolar CypA, 25 min",85.593 Pa
same,Storage Modulus Mean,"1 micromolar CypA, 25.5 min",85.745 Pa
same,Storage Modulus Mean,"1 micromolar CypA, 26 min",85.9515 Pa
same,Storage Modulus Mean,"1 micromolar CypA, 26.5 min",86.447 Pa
same,Storage Modulus Mean,"1 micromolar CypA, 27 min",86.3105 Pa
same,Storage Modulus Mean,"1 micromolar CypA, 27.5 min",86.5165 Pa
same,Storage Modulus Mean,"1 micromolar CypA, 28 min",87.046 Pa
same,Storage Modulus Mean,"1 micromolar CypA, 28.5 min",87.6325 Pa
same,Storage Modulus Mean,"1 micromolar CypA, 29 min",87.5525 Pa
same,Storage Modulus Mean,"1 micromolar CypA, 29.5 min",88.015 Pa
same,Storage Modulus Mean,"1 micromolar CypA, 30 min",88.195 Pa
same,Storage Modulus Mean,"3 micromolar CypA, 0.5 min",45.9789 Pa
same,Storage Modulus Mean,"3 micromolar CypA, 1 min",49.0644 Pa
same,Storage Modulus Mean,"3 micromolar CypA, 2 min",53.4995 Pa
same,Storage Modulus Mean,"3 micromolar CypA, 2.5 min",55.1838 Pa
same,Storage Modulus Mean,"3 micromolar CypA, 15.5 min",84.8933 Pa
same,Storage Modulus Mean,"3 micromolar CypA, 16 min",85.5605 Pa
same,Storage Modulus Mean,"3 micromolar CypA, 16.5 min",86.6785 Pa
same,Storage Modulus Mean,"3 micromolar CypA, 17 min",87.0382 Pa
same,Storage Modulus Mean,"3 micromolar CypA, 17.5 min",87.6182 Pa
same,Storage Modulus Mean,"3 micromolar CypA, 18 min",88.2994 Pa
same,Storage Modulus Mean,"3 micromolar CypA, 18.5 min",88.7376 Pa
same,Storage Modulus Mean,"3 micromolar CypA, 19 min",89.3381 Pa
same,Storage Modulus Mean,"3 micromolar CypA, 19.5 min",89.8813 Pa
same,Storage Modulus Mean,"3 micromolar CypA, 20 min",90.0627 Pa
same,Storage Modulus Mean,"3 micromolar CypA, 20.5 min",90.5612 Pa
same,Storage Modulus Mean,"3 micromolar CypA, 21 min",91.1542 Pa
same,Storage Modulus Mean,"3 micromolar CypA, 22 min",91.9938 Pa
same,Storage Modulus Mean,"3 micromolar CypA, 22.5 min",92.8273 Pa
same,Storage Modulus Mean,"3 micromolar CypA, 23 min",92.9993 Pa
same,Storage Modulus Mean,"3 micromolar CypA, 23.5 min",93.2874 Pa
same,Storage Modulus Mean,"3 micromolar CypA, 24 min",93.7276 Pa
same,Storage Modulus Mean,"3 micromolar CypA, 24.5 min",94.5164 Pa
same,Storage Modulus Mean,"3 micromolar CypA, 25 min",94.846 Pa
same,Storage Modulus Mean,"3 micromolar CypA, 25.5 min",95.3103 Pa
same,Storage Modulus Mean,"3 micromolar CypA, 26 min",95.1809 Pa
same,Storage Modulus Mean,"3 micromolar CypA, 26.5 min",95.7882 Pa
same,Storage Modulus Mean,"3 micromolar CypA, 27 min",96.6688 Pa
same,Storage Modulus Mean,"3 micromolar CypA, 27.5 min",97.1011 Pa
same,Storage Modulus Mean,"3 micromolar CypA, 28 min",97.156 Pa
same,Storage Modulus Mean,"3 micromolar CypA, 28.5 min",98.5343 Pa
same,Storage Modulus Mean,"3 micromolar CypA, 29 min",99.0328 Pa
same,Storage Modulus Mean,"3 micromolar CypA, 29.5 min",100.228 Pa
same,Storage Modulus Mean,"3 micromolar CypA, 30 min",99.8878 Pa
same,Storage Modulus Mean,"9 micromolar CypA, 0.5 min",48.3835 Pa
same,Storage Modulus Mean,"9 micromolar CypA, 1 min",51.2215 Pa
same,Storage Modulus Mean,"9 micromolar CypA, 2 min",57.3525 Pa
same,Storage Modulus Mean,"9 micromolar CypA, 2.5 min",59.712 Pa
same,Storage Modulus Mean,"9 micromolar CypA, 16 min",97.514 Pa
same,Storage Modulus Mean,"9 micromolar CypA, 16.5 min",98.3775 Pa
same,Storage Modulus Mean,"9 micromolar CypA, 17 min",98.824 Pa
same,Storage Modulus Mean,"9 micromolar CypA, 17.5 min",99.915 Pa
same,Storage Modulus Mean,"9 micromolar CypA, 18 min",100.862 Pa
same,Storage Modulus Mean,"9 micromolar CypA, 18.5 min",102.139 Pa
same,Storage Modulus Mean,"9 micromolar CypA, 19 min",102.537 Pa
same,Storage Modulus Mean,"9 micromolar CypA, 19.5 min",103.419 Pa
same,Storage Modulus Mean,"9 micromolar CypA, 20 min",104.135 Pa
same,Storage Modulus Mean,"9 micromolar CypA, 20.5 min",104.868 Pa
same,Storage Modulus Mean,"9 micromolar CypA, 21 min",105.51 Pa
same,Storage Modulus Mean,"9 micromolar CypA, 22 min",107.135 Pa
same,Storage Modulus Mean,"9 micromolar CypA, 22.5 min",105.845 Pa
same,Storage Modulus Mean,"9 micromolar CypA, 23 min",108.225 Pa
same,Storage Modulus Mean,"9 micromolar CypA, 23.5 min",108.535 Pa
same,Storage Modulus Mean,"9 micromolar CypA, 24 min",109.33 Pa
same,Storage Modulus Mean,"9 micromolar CypA, 24.5 min",109.7 Pa
same,Storage Modulus Mean,"9 micromolar CypA, 25 min",110.57 Pa
same,Storage Modulus Mean,"9 micromolar CypA, 25.5 min",110.88 Pa
same,Storage Modulus Mean,"9 micromolar CypA, 26 min",111.675 Pa
same,Storage Modulus Mean,"9 micromolar CypA, 26.5 min",112.945 Pa
same,Storage Modulus Mean,"9 micromolar CypA, 27 min",113.825 Pa
same,Storage Modulus Mean,"9 micromolar CypA, 27.5 min",114.675 Pa
same,Storage Modulus Mean,"9 micromolar CypA, 28 min",115.035 Pa
same,Storage Modulus Mean,"9 micromolar CypA, 28.5 min",116.38 Pa
same,Storage Modulus Mean,"9 micromolar CypA, 29 min",117.535 Pa
same,Storage Modulus Mean,"9 micromolar CypA, 29.5 min",117.475 Pa
same,Storage Modulus Mean,"9 micromolar CypA, 30 min",118.305 Pa
same,Storage Modulus Mean,"20 micromolar CypA, 0.5 min",42.6015 Pa
same,Storage Modulus Mean,"20 micromolar CypA, 1 min",44.31 Pa
same,Storage Modulus Mean,"20 micromolar CypA, 2 min",46.824 Pa
same,Storage Modulus Mean,"20 micromolar CypA, 2.5 min",47.847 Pa
same,Storage Modulus Mean,"20 micromolar CypA, 16 min",60.5165 Pa
same,Storage Modulus Mean,"20 micromolar CypA, 16.5 min",60.939 Pa
same,Storage Modulus Mean,"20 micromolar CypA, 17 min",60.6445 Pa
same,Storage Modulus Mean,"20 micromolar CypA, 17.5 min",61.2835 Pa
same,Storage Modulus Mean,"20 micromolar CypA, 18 min",61.65 Pa
same,Storage Modulus Mean,"20 micromolar CypA, 18.5 min",61.665 Pa
same,Storage Modulus Mean,"20 micromolar CypA, 19 min",61.776 Pa
same,Storage Modulus Mean,"20 micromolar CypA, 19.5 min",62.2455 Pa
same,Storage Modulus Mean,"20 micromolar CypA, 20 min",62.674 Pa
same,Storage Modulus Mean,"20 micromolar CypA, 20.5 min",62.903 Pa
same,Storage Modulus Mean,"20 micromolar CypA, 21 min",63.1325 Pa
same,Storage Modulus Mean,"20 micromolar CypA, 22 min",63.405 Pa
same,Storage Modulus Mean,"20 micromolar CypA, 22.5 min",63.372 Pa
same,Storage Modulus Mean,"20 micromolar CypA, 23 min",64.3175 Pa
same,Storage Modulus Mean,"20 micromolar CypA, 23.5 min",64.6855 Pa
same,Storage Modulus Mean,"20 micromolar CypA, 24 min",65.3115 Pa
same,Storage Modulus Mean,"20 micromolar CypA, 24.5 min",65.306 Pa
same,Storage Modulus Mean,"20 micromolar CypA, 25 min",65.35 Pa
same,Storage Modulus Mean,"20 micromolar CypA, 25.5 min",65.5815 Pa
same,Storage Modulus Mean,"20 micromolar CypA, 26.5 min",66.185 Pa
same,Storage Modulus Mean,"20 micromolar CypA, 27 min",66.527 Pa
same,Storage Modulus Mean,"20 micromolar CypA, 27.5 min",66.8255 Pa
same,Storage Modulus Mean,"20 micromolar CypA, 28 min",66.954 Pa
same,Storage Modulus Mean,"20 micromolar CypA, 28.5 min",67.21 Pa
same,Storage Modulus Mean,"20 micromolar CypA, 29 min",67.2745 Pa
same,Storage Modulus Mean,"20 micromolar CypA, 29.5 min",67.3945 Pa
same,Storage Modulus Mean,"20 micromolar CypA, 30 min",67.5465 Pa
